Results on 37 targets are retold here after the supplement of paper PMC6411743.

By UniProt entry, the sequences of proteins in these tests, tags left out. Where a name states a change or a piece, a line headed by the entry shows the natural chain unless it says otherwise.
UniProt Q9H8P0: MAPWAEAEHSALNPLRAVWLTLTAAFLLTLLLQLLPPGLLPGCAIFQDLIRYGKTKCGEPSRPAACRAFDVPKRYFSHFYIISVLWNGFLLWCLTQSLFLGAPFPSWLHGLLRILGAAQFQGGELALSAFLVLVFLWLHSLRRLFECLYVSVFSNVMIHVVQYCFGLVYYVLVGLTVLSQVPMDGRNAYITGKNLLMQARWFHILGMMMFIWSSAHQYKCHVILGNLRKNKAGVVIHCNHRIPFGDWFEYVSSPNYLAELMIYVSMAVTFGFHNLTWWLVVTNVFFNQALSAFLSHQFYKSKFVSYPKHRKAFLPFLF
UniProt Q9H0K6: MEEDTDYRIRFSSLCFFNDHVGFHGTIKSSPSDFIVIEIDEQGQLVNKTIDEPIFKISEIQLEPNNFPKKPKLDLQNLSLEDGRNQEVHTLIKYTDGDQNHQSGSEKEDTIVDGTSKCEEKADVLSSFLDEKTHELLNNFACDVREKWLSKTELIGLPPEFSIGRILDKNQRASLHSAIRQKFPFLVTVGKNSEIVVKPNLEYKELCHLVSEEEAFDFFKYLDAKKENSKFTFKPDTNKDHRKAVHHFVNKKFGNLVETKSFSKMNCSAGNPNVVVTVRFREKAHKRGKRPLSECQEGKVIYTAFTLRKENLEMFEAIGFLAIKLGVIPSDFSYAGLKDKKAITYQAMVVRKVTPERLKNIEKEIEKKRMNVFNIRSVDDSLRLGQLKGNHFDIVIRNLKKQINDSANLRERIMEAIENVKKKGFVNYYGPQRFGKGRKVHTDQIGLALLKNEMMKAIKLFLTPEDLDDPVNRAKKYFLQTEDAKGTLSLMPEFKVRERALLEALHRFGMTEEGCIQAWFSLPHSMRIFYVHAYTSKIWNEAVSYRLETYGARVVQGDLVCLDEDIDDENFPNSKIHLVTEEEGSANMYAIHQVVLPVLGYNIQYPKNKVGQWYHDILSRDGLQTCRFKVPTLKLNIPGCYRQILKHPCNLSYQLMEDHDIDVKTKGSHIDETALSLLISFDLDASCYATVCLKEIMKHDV
UniProt Q9H9A5, whole entry: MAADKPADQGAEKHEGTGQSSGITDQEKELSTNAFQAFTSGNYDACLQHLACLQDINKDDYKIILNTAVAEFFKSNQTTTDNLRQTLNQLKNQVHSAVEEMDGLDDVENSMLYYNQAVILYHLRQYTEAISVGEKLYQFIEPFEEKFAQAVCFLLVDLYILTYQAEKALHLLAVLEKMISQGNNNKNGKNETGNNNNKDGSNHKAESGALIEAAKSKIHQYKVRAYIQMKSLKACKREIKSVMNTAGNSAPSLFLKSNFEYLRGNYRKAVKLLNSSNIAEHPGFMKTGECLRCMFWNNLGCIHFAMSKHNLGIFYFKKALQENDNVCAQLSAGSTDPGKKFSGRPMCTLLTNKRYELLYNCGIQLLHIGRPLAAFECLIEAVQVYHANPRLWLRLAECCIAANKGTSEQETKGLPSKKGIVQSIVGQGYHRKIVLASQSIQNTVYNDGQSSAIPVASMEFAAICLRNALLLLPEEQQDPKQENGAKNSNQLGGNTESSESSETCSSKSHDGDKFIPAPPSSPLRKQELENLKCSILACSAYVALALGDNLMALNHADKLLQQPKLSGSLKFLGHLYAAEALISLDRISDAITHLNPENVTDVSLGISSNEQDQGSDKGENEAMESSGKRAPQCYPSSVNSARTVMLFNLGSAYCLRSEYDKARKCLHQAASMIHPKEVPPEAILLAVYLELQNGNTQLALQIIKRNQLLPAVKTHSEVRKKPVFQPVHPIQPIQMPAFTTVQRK
UniProt Q9H0D6: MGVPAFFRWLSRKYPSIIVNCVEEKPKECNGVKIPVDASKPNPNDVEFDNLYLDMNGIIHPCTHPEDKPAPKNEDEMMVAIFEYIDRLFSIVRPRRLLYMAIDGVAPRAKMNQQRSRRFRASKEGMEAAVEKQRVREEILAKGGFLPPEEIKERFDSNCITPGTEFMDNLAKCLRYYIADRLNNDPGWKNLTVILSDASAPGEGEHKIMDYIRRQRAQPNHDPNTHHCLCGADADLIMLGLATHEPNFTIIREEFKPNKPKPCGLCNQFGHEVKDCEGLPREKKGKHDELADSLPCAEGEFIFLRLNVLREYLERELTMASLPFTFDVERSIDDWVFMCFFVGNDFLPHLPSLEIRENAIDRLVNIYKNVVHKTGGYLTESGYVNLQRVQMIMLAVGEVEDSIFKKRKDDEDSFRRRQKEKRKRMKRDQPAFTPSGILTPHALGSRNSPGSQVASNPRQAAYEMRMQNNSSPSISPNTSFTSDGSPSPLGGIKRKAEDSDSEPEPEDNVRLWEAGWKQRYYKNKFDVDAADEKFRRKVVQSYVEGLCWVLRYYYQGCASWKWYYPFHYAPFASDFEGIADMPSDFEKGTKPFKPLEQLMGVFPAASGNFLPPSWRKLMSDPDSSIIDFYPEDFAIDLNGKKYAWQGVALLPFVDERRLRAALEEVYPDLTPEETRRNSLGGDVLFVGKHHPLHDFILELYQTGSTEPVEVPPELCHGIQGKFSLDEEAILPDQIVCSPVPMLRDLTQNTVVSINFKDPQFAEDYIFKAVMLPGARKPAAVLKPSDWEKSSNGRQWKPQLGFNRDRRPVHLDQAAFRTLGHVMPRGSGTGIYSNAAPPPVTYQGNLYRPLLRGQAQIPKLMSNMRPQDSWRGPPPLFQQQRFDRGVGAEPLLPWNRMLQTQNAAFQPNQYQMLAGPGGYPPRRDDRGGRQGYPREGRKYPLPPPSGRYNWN
UniProt Q9H4M9: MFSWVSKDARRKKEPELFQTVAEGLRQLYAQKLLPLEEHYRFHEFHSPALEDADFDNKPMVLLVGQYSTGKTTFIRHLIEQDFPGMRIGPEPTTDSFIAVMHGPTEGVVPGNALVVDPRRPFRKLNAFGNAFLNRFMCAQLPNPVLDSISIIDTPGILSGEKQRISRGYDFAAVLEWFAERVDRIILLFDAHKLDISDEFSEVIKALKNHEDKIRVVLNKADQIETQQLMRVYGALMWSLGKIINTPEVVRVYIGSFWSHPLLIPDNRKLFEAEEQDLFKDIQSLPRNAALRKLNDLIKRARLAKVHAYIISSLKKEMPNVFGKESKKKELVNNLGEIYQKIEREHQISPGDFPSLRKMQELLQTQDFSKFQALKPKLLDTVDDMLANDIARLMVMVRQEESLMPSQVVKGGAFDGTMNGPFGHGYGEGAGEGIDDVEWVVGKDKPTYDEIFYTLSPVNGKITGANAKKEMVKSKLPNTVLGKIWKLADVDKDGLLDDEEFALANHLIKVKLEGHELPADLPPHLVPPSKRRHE
UniProt Q9H3G5: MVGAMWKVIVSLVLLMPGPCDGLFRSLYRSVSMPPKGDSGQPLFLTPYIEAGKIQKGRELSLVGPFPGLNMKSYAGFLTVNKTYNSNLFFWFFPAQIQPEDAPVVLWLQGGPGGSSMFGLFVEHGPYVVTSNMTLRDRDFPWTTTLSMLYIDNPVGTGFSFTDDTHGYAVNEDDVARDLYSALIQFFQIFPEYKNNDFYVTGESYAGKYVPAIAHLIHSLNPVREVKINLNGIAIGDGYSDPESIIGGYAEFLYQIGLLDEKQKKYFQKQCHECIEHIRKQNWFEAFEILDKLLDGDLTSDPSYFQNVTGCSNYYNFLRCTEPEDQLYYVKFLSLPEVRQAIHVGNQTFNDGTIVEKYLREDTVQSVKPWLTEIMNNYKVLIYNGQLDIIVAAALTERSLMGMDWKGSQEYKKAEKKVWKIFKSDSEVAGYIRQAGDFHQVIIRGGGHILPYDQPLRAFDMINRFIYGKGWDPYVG
UniProt Q9H8G2: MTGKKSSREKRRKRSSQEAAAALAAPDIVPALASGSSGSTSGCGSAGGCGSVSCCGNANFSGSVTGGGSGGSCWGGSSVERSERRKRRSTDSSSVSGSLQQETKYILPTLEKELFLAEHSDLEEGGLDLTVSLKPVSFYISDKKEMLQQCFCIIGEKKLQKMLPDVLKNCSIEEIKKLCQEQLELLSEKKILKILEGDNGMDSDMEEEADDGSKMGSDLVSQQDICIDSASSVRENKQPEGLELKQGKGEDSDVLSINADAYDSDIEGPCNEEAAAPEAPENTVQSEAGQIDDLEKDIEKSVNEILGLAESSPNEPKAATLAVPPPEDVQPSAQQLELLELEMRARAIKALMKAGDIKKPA
UniProt Q9H334: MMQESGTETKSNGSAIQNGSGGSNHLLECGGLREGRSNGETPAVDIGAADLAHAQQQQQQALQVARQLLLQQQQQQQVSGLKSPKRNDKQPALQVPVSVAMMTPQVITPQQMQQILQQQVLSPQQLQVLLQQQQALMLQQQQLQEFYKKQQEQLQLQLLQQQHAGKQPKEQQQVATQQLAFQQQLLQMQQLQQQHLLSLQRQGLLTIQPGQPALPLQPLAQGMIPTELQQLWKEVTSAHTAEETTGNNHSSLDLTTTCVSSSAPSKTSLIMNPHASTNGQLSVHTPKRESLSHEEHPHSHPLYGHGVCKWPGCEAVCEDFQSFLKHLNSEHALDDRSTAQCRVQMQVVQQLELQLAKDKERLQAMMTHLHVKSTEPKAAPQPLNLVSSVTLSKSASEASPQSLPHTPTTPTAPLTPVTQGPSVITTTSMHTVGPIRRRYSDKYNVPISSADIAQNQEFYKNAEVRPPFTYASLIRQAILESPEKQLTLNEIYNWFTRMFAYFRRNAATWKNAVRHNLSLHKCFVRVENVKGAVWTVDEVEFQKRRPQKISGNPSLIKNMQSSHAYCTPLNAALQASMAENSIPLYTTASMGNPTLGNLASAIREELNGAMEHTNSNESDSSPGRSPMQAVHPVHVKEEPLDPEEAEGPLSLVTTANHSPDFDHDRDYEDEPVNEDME
UniProt Q9H9B4: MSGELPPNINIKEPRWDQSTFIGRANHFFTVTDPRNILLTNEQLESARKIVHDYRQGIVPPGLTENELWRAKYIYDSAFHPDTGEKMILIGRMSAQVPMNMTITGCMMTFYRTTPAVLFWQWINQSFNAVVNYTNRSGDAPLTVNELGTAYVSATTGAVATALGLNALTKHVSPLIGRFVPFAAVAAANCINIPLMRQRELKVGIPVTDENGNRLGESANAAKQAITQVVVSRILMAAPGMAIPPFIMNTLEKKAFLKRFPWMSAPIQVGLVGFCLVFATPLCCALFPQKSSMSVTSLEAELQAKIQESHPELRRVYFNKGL
UniProt Q9H246: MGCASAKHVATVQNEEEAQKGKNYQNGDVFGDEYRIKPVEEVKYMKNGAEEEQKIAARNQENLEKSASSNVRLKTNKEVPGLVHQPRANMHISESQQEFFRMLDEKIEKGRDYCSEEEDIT
UniProt Q9H0V1: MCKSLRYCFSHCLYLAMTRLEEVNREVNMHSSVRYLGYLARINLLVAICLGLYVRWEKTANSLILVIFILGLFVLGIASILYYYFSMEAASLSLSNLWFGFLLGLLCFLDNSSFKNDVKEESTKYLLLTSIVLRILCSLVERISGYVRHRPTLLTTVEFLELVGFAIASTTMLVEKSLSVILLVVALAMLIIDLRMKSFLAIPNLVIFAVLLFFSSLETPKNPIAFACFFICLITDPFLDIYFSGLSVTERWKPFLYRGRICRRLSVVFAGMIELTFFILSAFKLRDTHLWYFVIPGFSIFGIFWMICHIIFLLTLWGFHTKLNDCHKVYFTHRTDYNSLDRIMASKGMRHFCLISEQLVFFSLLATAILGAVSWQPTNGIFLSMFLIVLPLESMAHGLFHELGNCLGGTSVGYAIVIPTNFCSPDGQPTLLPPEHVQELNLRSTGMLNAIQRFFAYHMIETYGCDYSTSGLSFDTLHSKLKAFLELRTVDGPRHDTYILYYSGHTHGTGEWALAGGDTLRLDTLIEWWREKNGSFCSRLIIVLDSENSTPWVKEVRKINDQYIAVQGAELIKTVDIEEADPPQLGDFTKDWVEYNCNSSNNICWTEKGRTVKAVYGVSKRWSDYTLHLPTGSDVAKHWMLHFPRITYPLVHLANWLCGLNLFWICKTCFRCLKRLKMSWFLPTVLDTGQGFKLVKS
UniProt Q9H900: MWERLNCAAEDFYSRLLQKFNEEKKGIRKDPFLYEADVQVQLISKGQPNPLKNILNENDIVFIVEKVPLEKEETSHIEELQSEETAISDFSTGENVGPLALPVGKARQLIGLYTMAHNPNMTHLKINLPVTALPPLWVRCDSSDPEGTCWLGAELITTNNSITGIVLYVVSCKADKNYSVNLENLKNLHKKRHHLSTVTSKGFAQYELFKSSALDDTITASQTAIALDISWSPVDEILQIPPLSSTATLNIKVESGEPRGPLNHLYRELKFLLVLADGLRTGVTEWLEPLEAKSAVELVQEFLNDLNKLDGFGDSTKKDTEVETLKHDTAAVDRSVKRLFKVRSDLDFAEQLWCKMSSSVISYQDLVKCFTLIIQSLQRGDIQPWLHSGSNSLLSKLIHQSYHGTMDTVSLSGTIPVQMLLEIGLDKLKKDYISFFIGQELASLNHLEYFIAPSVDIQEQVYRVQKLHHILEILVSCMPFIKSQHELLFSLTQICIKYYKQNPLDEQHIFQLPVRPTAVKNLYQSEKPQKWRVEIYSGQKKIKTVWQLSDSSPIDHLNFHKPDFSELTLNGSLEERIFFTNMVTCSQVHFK

± gives the standard deviation of the averaged measurements. This is a selection; strong and weak results do not stand in their true shares. Most values lie at the level of the controls, where differences are scatter.

Compound in this experiment: Nc1ncnc2c1ncn2[C@@H]1O[C@H](COP(=O)(O)OP(=O)(O)OP(=O)(O)O)[C@@H](O)[C@H]1O [adenosine triphosphate]
The experiment in a line: NP40-soluble protein abundance relative to vehicle (solubility fold change) (ratio); higher = more soluble protein in presence of ATP. The conditions noted are these: concentration: 0.5mM. An outline of the steps: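 Data come from three independent experiments in which Dounce-homogenised Jurkat crude lysate was treated at eight concentrations from 0.1 to 10 mM. Treatment ran 10 min at room temperature and then 3 min at 37 °C, after which 0.8% NP40 and benzonase were added for 60 min at 4 °C before ultracentrifugation. The supernatant underwent TMT labelling and LC-MS/MS, and vsn-normalised intensities were expressed as fold change against the detergent-processed vehicle in each replicate.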
In the case of UniProt Q9H8P0 and related entries, the NP40-soluble protein abundance came out at 0.956 ± 0.06.
The value for UniProt Q9H270 and related entries was 1.03 ± 0.046.
The value for PUS7L (UniProt Q9H0K6) was 1.06 ± 0.17; that for UniProt Q9H9A5 and related entries was 1.1 ± 0.081; that for XRN2 (UniProt Q9H0D6) was 1.02 ± 0.049.
The value for UniProt Q9GZT8 and related entries was 1.01 ± 0.033.
Consider UniProt Q9H1B7, for which the NP40-soluble protein abundance was 0.962 ± 0.041.
The value for EHD1 (UniProt Q9H4M9) was 1.03 ± 0.058; that for CUEDC2 (UniProt Q9H467) was 0.875 ± 0.088; that for UniProt Q9HCC0-2 was 1.02 ± 0.04.
Then UniProt Q9H8V3 and related entries, with 1.06 ± 0.068.
The value for CPVL (UniProt Q9H3G5) was 0.9904 ± 0.0056; that for ADNP (UniProt Q9H2P0) was 1.03 ± 0.043.
As to UniProt Q9H8G2, the NP40-soluble protein abundance turned out to be 1 ± 0.076.
In the case of UniProt Q9C0B5 and related entries, the NP40-soluble protein abundance was determined as 0.909 ± 0.022.
The value for UniProt Q9H4X1 and related entries was 0.935 ± 0.083; that for UniProt Q9H334 and related entries was 1 ± 0.064.
Then SFXN1 (UniProt Q9H9B4), with 0.997 ± 0.031.
Then UniProt Q9H0V9 and related entries, with 1.03 ± 0.14; and TFB2M (UniProt Q9H5Q4), with 0.93 ± 0.081; and UniProt Q9H246, with 1.1 ± 0.16.
For the target TMEM168 (UniProt Q9H0V1), the NP40-soluble protein abundance came out at 1.15 ± 0.053.
With UniProt Q9HBL7, the NP40-soluble protein abundance was determined as 0.979 ± 0.032.
ATG5 (UniProt Q9H1Y0): the NP40-soluble protein abundance was determined as 1.01 ± 0.044.
Regarding RSAD1 (UniProt Q9HA92), the NP40-soluble protein abundance stood at 1.05 ± 0.067.
Then UniProt Q9HAF1 and related entries, with 0.996 ± 0.21; and WDR12 (UniProt Q9GZL7), with 1.03 ± 0.065.
The value for HMG20A (UniProt Q9NP66) was 0.945 ± 0.069; that for ZWILCH (UniProt Q9H900) was 1.08 ± 0.06; that for UniProt Q9H0P0 and related entries was 1.03 ± 0.065.
Then UniProt Q9GZR1 and related entries, with 0.916 ± 0.14; and WDR61 (UniProt Q9GZS3), with 1.04 ± 0.042.
On to UniProt Q9C0G0 and related entries, for which the NP40-soluble protein abundance is 0.973 ± 0.17.
The value for UniProt Q9H1I8 and related entries was 0.953 ± 0.21.
The value for UniProt Q9H7F0 and related entries was 1.04 ± 0.053; that for SEPSECS (UniProt Q9HD40) was 0.999 ± 0.061.
The value for EGLN1 (UniProt Q9GZT9) was 1.01 ± 0.06.
